Data as given in PubChem BioAssay AID1259327 (Drosophila RNAi Screening Center, 2017)

Assay: 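Data from controls in screens of zinc and manganese toxicity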
System: Drosophila S2R+ cells
Knock-down reagent: long dsRNA against Drosophila genes
Duration: 5 days (water added on day 4, read one day later)
Conditions: water added as vehicle, no metal, one day before read-out
Detection: 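Luciferase ATP signal per well, normalised to plate mean, duplicate average converted to z-score across plates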
Direction: ATP z-score: higher = more total ATP than typical wells; ATP luminescence: higher = more total ATP
Call rule: 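a hit is any knock-down whose absolute ATP z-score is greater than 1.5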
Calls: active = hit: ATP up or down; inactive = no clear ATP change
Here is an unselected part of about 3,100 reagents tested. 378 of them (12%) were called active. 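Hits include both directions; z-score sign shows ATP rise or fall; raw luminescence values are not plate-normalised.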 A number with no mark means an inactive call. Names joined by + are all predicted targets of the reagent. Not stated in the record: the amount of reagent.

| Target gene | DRSC id | ATP z-score, duplicate mean | ATP luminescence, replicate 1 (RLU) | ATP luminescence, replicate 2 (RLU) |
| --- | --- | --- | --- | --- |
| MstProx + Mst84Da | DRSC12597 | -0.159 | 8.67e5 | 8.83e5 |
| Vha100-2 (GeneID 42216) | DRSC14152 | 0.75 | 8.10e5 | 7.56e5 |
| Vha100-2 (GeneID 42216) | DRSC29227 | -0.234 | 8.46e5 | 7.47e5 |
| phtf (GeneID 35583) | DRSC05023 | 0.462 | 7.51e5 | 8.11e5 |
| phtf (GeneID 35583) | DRSC28441 | 0.39 | 8.92e5 | 8.49e5 |
| CG12490 (GeneID 37623) | DRSC04123 | 0.287 | 6.75e5 | 8.37e5 |
| CG10465 (GeneID 35488) | DRSC04848 | -0.478 | 7.10e5 | 6.41e5 |
| CG10465 (GeneID 35488) | DRSC39896 | -0.248 | 5.16e5 | 6.16e5 |
| CG17928 (GeneID 35009) | DRSC02644 | 0.0925 | 7.06e5 | 7.65e5 |
| CG17928 (GeneID 35009) | DRSC39554 | -1.5 | 3.33e5 | 3.95e5 |
| CG14971 (GeneID 38429) | DRSC08430 | -1.78 (active) | 5.20e5 | 5.62e5 |
| ppk27 (GeneID 38440) | DRSC22211 | -0.68 | 6.01e5 | 4.42e5 |
| nrv1 (GeneID 33952) | DRSC03382 | -1.46 | 3.25e5 | 4.32e5 |
| PGRP-LC (GeneID 39063) | DRSC08980 | -0.145 | 7.20e5 | 7.33e5 |
| PGRP-LC (GeneID 39063) | DRSC10416 | -0.655 | 8.43e5 | 7.78e5 |
| PGRP-LC (GeneID 39063) | DRSC10417 | -0.291 | 8.88e5 | 8.29e5 |
| PGRP-LC (GeneID 39063) | DRSC28556 | 0.904 | 9.93e5 | 8.76e5 |
| Lfg + asRNA:CR43468 | DRSC06853 | -0.961 | 4.80e5 | 5.85e5 |
| Vha16-4 (GeneID 36900) | DRSC07321 | -0.521 | 6.03e5 | 5.41e5 |
| inc (GeneID 31110) | DRSC17954 | 1.07 | 6.12e5 | 7.40e5 |
| inc (GeneID 31110) | DRSC28898 | -0.927 | 7.36e5 | 6.88e5 |
| Nrk (GeneID 36445) | DRSC07480 | 0.837 | 6.87e5 | 7.04e5 |
| Nrk (GeneID 36445) | DRSC36725 | -0.574 | 5.60e5 | 5.02e5 |
| Nrk (GeneID 36445) | DRSC36726 | 0.317 | 6.77e5 | 5.35e5 |
| Oatp33Ea (GeneID 34660) | DRSC02859 | 0.00761 | 3.83e5 | 5.83e5 |
| Oatp33Ea (GeneID 34660) | DRSC26461 | -0.347 | 6.94e5 | 7.70e5 |
| stol (GeneID 34921) | DRSC01956 | -0.2 | 6.96e5 | 7.14e5 |
| stol (GeneID 34921) | DRSC39841 | -1.3 | 3.72e5 | 4.04e5 |
| PMP34 (GeneID 38532) | DRSC21939 | 0.741 | 6.32e5 | 6.53e5 |
| PMP34 (GeneID 38532) | DRSC39444 | -1.1 | 3.86e5 | 3.75e5 |
| rho-5 (GeneID 2768944) | DRSC26239 | -1.33 | 6.69e5 | 7.02e5 |
| rho-5 (GeneID 2768944) | DRSC39726 | -0.148 | 4.31e5 | 4.80e5 |
| smog (GeneID 33690) | DRSC00334 | -0.422 | 6.60e5 | 7.02e5 |
| smog (GeneID 33690) | DRSC23053 | -0.167 | 5.74e5 | 5.57e5 |
| smog (GeneID 33690) | DRSC27223 | -0.997 | 9.54e5 | 9.38e5 |
| kcc (GeneID 37800) | DRSC04316 | -0.922 | 5.01e5 | 7.68e5 |
| kcc (GeneID 37800) | DRSC04516 | -0.459 | 7.18e5 | 6.37e5 |
| ds (GeneID 33245) | DRSC00815 | -0.43 | 6.58e5 | 6.64e5 |
| ppk (GeneID 34843) | DRSC03595 | -0.273 | 7.12e5 | 6.82e5 |
| ppk (GeneID 34843) | DRSC25361 | -0.571 | 7.88e5 | 7.71e5 |
| Vmat + CG13330 | DRSC06365 | 0.00741 | 7.13e5 | 7.52e5 |
| Vmat + CG13330 | DRSC28600 | 0.541 | 9.03e5 | 8.74e5 |
| Or42b (GeneID 35516) | DRSC04913 | 0.845 | 6.06e5 | 7.86e5 |
| Or42b (GeneID 35516) | DRSC27273 | 0.218 | 7.70e5 | 8.57e5 |
| oys (GeneID 36045) | DRSC05203 | -1.77 (active) | 5.21e5 | 5.80e5 |
| oys (GeneID 36045) | DRSC06751 | -1.13 | 6.08e5 | 6.12e5 |
| oys (GeneID 36045) | DRSC26939 | -0.17 | 8.02e5 | 9.62e5 |
